{
  "source": "PubChem BioAssay AID248",
  "about": "(DTP/NCI, 2004)",
  "system": "L1210 leukemia ip in BDF1 mice, survival T/C",
  "test": "NCI In Vivo Anticancer Drug Screen. Data for tumor model L1210 Leukemia (intraperitoneal) in B6D2F1 (BDF1) mice",
  "settings": "T/C endpoint: mean survival time, higher T/C = longer survival",
  "note": "The list is a part of this screen's results and no random one: it gathers some chemical classes. Not every dose and run of a compound is shown. T/C gives the treated animals as a percentage of the vehicle group. For survival time, the PubChem record calls one and a half times the control and up active, and a quarter to a half above the control has no call in these data; cut-offs in other NCI protocols can differ. Schedules are NCI's codes, taken here to give the interval after Q, in days (D) or hours (H), and the number of doses after X. Some T/C values are followed by the survivors on the day toxicity was checked, most often the fifth; where neither a count nor a note follows, no animal had died by that day. Some doses were run more than once; their values stand side by side, smallest first. Some schedule codes hold Z or #, which are not explained here.",
  "data": [
    {"smiles": "NC(=O)c1[nH]cnc1/N=N\\N(CCCl)CCCl", "values": [
      {"measurement": "T/C", "setting": "dose: 25.0 mg/kg/injection, schedule: Q08DX024 (ip), vehicle: carboxymethylcellulose (CMC)", "value": "286 % of control"},
      {"measurement": "T/C", "setting": "dose: 25.0 mg/kg/injection, schedule: Q## X005 (ip), vehicle: carboxymethylcellulose (CMC)", "value": "122 % of control"},
      {"measurement": "T/C", "setting": "dose: 25.0 mg/kg/injection, schedule: Q#A X034 (ip), vehicle: carboxymethylcellulose (CMC)", "value": "136 % of control"},
      {"measurement": "T/C", "setting": "dose: 25.0 mg/kg/injection, schedule: Q#A X Z (ip), vehicle: carboxymethylcellulose (CMC)", "value": "190 % of control"},
      {"measurement": "T/C", "setting": "dose: 27.0 mg/kg/injection, schedule: Q06HX008 (ip), vehicle: carboxymethylcellulose (CMC)", "value": "161 % of control"},
      {"measurement": "T/C", "setting": "dose: 30.0 mg/kg/injection, schedule: Q01DX001 (ip), vehicle: carboxymethylcellulose (CMC)", "value": "121 % of control"},
      {"measurement": "T/C", "setting": "dose: 30.0 mg/kg/injection, schedule: Q03DX Z (ip), vehicle: carboxymethylcellulose (CMC)", "value": "205 and 232 % of control"},
      {"measurement": "T/C", "setting": "dose: 30.0 mg/kg/injection, schedule: Q07DX Z (ip), vehicle: carboxymethylcellulose (CMC)", "value": "136 % of control"},
      {"measurement": "T/C", "setting": "dose: 33.0 mg/kg/injection, schedule: Q01DX006 (iv), vehicle: carboxymethylcellulose (CMC)", "value": "164 % of control"},
      {"measurement": "T/C", "setting": "dose: 33.0 mg/kg/injection, schedule: Q01DX Z (im), vehicle: carboxymethylcellulose (CMC)", "value": "156 % of control"},
      {"measurement": "T/C", "setting": "dose: 33.0 mg/kg/injection, schedule: Q01DX Z (ip), vehicle: carboxymethylcellulose (CMC)", "value": "246 % of control"},
      {"measurement": "T/C", "setting": "dose: 33.0 mg/kg/injection, schedule: Q01DX Z (oral), vehicle: carboxymethylcellulose (CMC)", "value": "180 % of control"},
      {"measurement": "T/C", "setting": "dose: 33.0 mg/kg/injection, schedule: Q01DX Z (sc), vehicle: carboxymethylcellulose (CMC)", "value": "144 % of control"},
      {"measurement": "T/C", "setting": "dose: 37.5 mg/kg/injection, schedule: Q01DX005 (oral), vehicle: carboxymethylcellulose (CMC)", "value": "115 % of control"},
      {"measurement": "T/C", "setting": "dose: 37.5 mg/kg/injection, schedule: Q01DX009 (oral), vehicle: carboxymethylcellulose (CMC)", "value": "131 % of control"},
      {"measurement": "T/C", "setting": "dose: 37.5 mg/kg/injection, schedule: Q01DX017 (oral), vehicle: steroid suspending solution", "value": "96 and 108 % of control [7 of 8 alive]"},
      {"measurement": "T/C", "setting": "dose: 37.5 mg/kg/injection, schedule: Q03HX008 (oral), vehicle: carboxymethylcellulose (CMC)", "value": "210 % of control"},
      {"measurement": "T/C", "setting": "dose: 37.5 mg/kg/injection, schedule: Q03HX016 (ip), vehicle: carboxymethylcellulose (CMC)", "value": "478 % of control"},
      {"measurement": "T/C", "setting": "dose: 37.5 mg/kg/injection, schedule: Q06HX012 (oral), vehicle: steroid suspending solution", "value": "122 % of control"},
      {"measurement": "T/C", "setting": "dose: 37.5 mg/kg/injection, schedule: Q06HX020 (oral), vehicle: steroid suspending solution", "value": "105 % of control"},
      {"measurement": "T/C", "setting": "dose: 37.5 mg/kg/injection, schedule: Q06HX068 (oral), vehicle: steroid suspending solution", "value": "185 % of control"},
      {"measurement": "T/C", "setting": "dose: 37.5 mg/kg/injection, schedule: Q## X009 (oral), vehicle: carboxymethylcellulose (CMC)", "value": "121 % of control"},
      {"measurement": "T/C", "setting": "dose: 37.5 mg/kg/injection, schedule: Q#A X Z (ip), vehicle: carboxymethylcellulose (CMC)", "value": "180 % of control"},
      {"measurement": "T/C", "setting": "dose: 39.0 mg/kg/injection, schedule: Q01DX009 (ip), vehicle: carboxymethylcellulose (CMC)", "value": "227 % of control"},
      {"measurement": "T/C", "setting": "dose: 39.0 mg/kg/injection, schedule: Q01DX017 (ip), vehicle: carboxymethylcellulose (CMC)", "value": "180 % of control"},
      {"measurement": "T/C", "setting": "dose: 39.0 mg/kg/injection, schedule: Q01DX Z (ip), vehicle: carboxymethylcellulose (CMC)", "value": "175 and 305 % of control"},
      {"measurement": "T/C", "setting": "dose: 41.5 mg/kg/injection, schedule: Q04DX003 (ip), vehicle: other", "value": "151 and 162 % of control"},
      {"measurement": "T/C", "setting": "dose: 43.5 mg/kg/injection, schedule: Q01DX009 (ip), vehicle: other", "value": "196, 201, 209 % of control"},
      {"measurement": "T/C", "setting": "dose: 44.0 mg/kg/injection, schedule: Q01DX001 (ip), vehicle: carboxymethylcellulose (CMC)", "value": "130 % of control"},
      {"measurement": "T/C", "setting": "dose: 44.0 mg/kg/injection, schedule: Q03DX Z (ip), vehicle: carboxymethylcellulose (CMC)", "value": "325 % of control"},
      {"measurement": "T/C", "setting": "dose: 44.0 mg/kg/injection, schedule: Q07DX Z (ip), vehicle: carboxymethylcellulose (CMC)", "value": "151 % of control"},
      {"measurement": "T/C", "setting": "dose: 45.0 mg/kg/injection, schedule: Q06HX008 (ip), vehicle: carboxymethylcellulose (CMC)", "value": "232 % of control"},
      {"measurement": "T/C", "setting": "dose: 46.1 mg/kg/injection, schedule: Q01DX001 (ip), vehicle: steroid suspending solution", "value": "135 % of control"},
      {"measurement": "T/C", "setting": "dose: 50.0 mg/kg/injection, schedule: Q01DX001 (ip), vehicle: carboxymethylcellulose (CMC)", "value": "134 % of control"},
      {"measurement": "T/C", "setting": "dose: 50.0 mg/kg/injection, schedule: Q01DX001 (ip), vehicle: saline", "value": "106 and 116 % of control"},
      {"measurement": "T/C", "setting": "dose: 50.0 mg/kg/injection, schedule: Q01DX001 (ip), vehicle: steroid suspending solution, evaluated on day 6", "value": "194 % of control"},
      {"measurement": "T/C", "setting": "dose: 50.0 mg/kg/injection, schedule: Q01DX001 (ip), vehicle: steroid suspending solution, evaluated on day 28", "value": "130 % of control"},
      {"measurement": "T/C", "setting": "dose: 50.0 mg/kg/injection, schedule: Q01DX001 (ip), vehicle: steroid suspending solution, evaluated on day 60", "value": "194 % of control"},
      {"measurement": "T/C", "setting": "dose: 50.0 mg/kg/injection, schedule: Q01DX005 (ip), vehicle: carboxymethylcellulose (CMC)", "value": "139 and 182 % of control"},
      {"measurement": "T/C", "setting": "dose: 50.0 mg/kg/injection, schedule: Q01DX006 (iv), vehicle: carboxymethylcellulose (CMC)", "value": "185 % of control [5 of 6 alive]"},
      {"measurement": "T/C", "setting": "dose: 50.0 mg/kg/injection, schedule: Q01DX009 (ip), vehicle: carboxymethylcellulose (CMC)", "value": "206 % of control"},
      {"measurement": "T/C", "setting": "dose: 50.0 mg/kg/injection, schedule: Q01DX009 (ip), vehicle: water", "value": "223 % of control"},
      {"measurement": "T/C", "setting": "dose: 50.0 mg/kg/injection, schedule: Q01DX009 (oral), vehicle: carboxymethylcellulose (CMC)", "value": "192 % of control"},
      {"measurement": "T/C", "setting": "dose: 50.0 mg/kg/injection, schedule: Q01DX017 (ip), vehicle: carboxymethylcellulose (CMC)", "value": "267, 273, 280 % of control"},
      {"measurement": "T/C", "setting": "dose: 50.0 mg/kg/injection, schedule: Q01DX Z (im), vehicle: carboxymethylcellulose (CMC)", "value": "158 % of control"},
      {"measurement": "T/C", "setting": "dose: 50.0 mg/kg/injection, schedule: Q01DX Z (ip), vehicle: carboxymethylcellulose (CMC)", "value": "285, 312, 318 % of control"},
      {"measurement": "T/C", "setting": "dose: 50.0 mg/kg/injection, schedule: Q01DX Z (oral), vehicle: carboxymethylcellulose (CMC)", "value": "187 and 250 % of control"},
      {"measurement": "T/C", "setting": "dose: 50.0 mg/kg/injection, schedule: Q01DX Z (sc), vehicle: carboxymethylcellulose (CMC)", "value": "160 % of control"},
      {"measurement": "T/C", "setting": "dose: 50.0 mg/kg/injection, schedule: Q02DX009 (ip), vehicle: carboxymethylcellulose (CMC)", "value": "213, 251, 259 % of control"},
      {"measurement": "T/C", "setting": "dose: 50.0 mg/kg/injection, schedule: Q03HX003 (ip), vehicle: carboxymethylcellulose (CMC)", "value": "137 % of control"},
      {"measurement": "T/C", "setting": "dose: 50.0 mg/kg/injection, schedule: Q03HX008 (ip), vehicle: carboxymethylcellulose (CMC)", "value": "262 % of control"},
      {"measurement": "T/C", "setting": "dose: 50.0 mg/kg/injection, schedule: Q03HX008 (ip), vehicle: water", "value": "685 % of control"},
      {"measurement": "T/C", "setting": "dose: 50.0 mg/kg/injection, schedule: Q04DX002 (ip), vehicle: water", "value": "122 % of control"},
      {"measurement": "T/C", "setting": "dose: 50.0 mg/kg/injection, schedule: Q04DX003 (ip), vehicle: carboxymethylcellulose (CMC)", "value": "152 % of control"},
      {"measurement": "T/C", "setting": "dose: 50.0 mg/kg/injection, schedule: Q04DX005 (ip), vehicle: carboxymethylcellulose (CMC)", "value": "117, 177, 190 % of control"},
      {"measurement": "T/C", "setting": "dose: 50.0 mg/kg/injection, schedule: Q08DX002 (ip), vehicle: carboxymethylcellulose (CMC)", "value": "132 % of control"},
      {"measurement": "T/C", "setting": "dose: 50.0 mg/kg/injection, schedule: Q08DX003 (ip), vehicle: carboxymethylcellulose (CMC)", "value": "126 % of control"},
      {"measurement": "T/C", "setting": "dose: 50.0 mg/kg/injection, schedule: Q08DX024 (ip), vehicle: carboxymethylcellulose (CMC)", "value": "348 % of control"},
      {"measurement": "T/C", "setting": "dose: 50.0 mg/kg/injection, schedule: Q## X003 (ip), vehicle: carboxymethylcellulose (CMC)", "value": "118 % of control"},
      {"measurement": "T/C", "setting": "dose: 50.0 mg/kg/injection, schedule: Q## X005 (ip), vehicle: carboxymethylcellulose (CMC)", "value": "175 % of control"},
      {"measurement": "T/C", "setting": "dose: 50.0 mg/kg/injection, schedule: Q#A X034 (ip), vehicle: carboxymethylcellulose (CMC)", "value": "318 % of control"},
      {"measurement": "T/C", "setting": "dose: 53.0 mg/kg/injection, schedule: Q01DX001 (ip), vehicle: other", "value": "121 % of control"}
    ]}
  ]
}
